Measured values taken from PMC4529235.
No constants are given. Whether binding was seen depends on the method and setting. In cells and extracts the contact can be indirect.

Columns and labels:
[1] = molecular target: tetrameric ASIC1a concatemeric fusion protein 4_(ASIC)FP (H8-(hA1a-N1Q7)3-hA1a) (human) (UniProt P78348); assay: cross-linking; oxidation with 0.3 mM NaTT (20 min, 4°C) of Ni-NTA affinity-purified fractions from Xenopus oocytes and CHO cells, on the beads; non-reducing SDS-PAGE, anti-ASIC1a western blot
[2] = molecular target: tetrameric ASIC1a concatemeric fusion protein 4_(ASIC)FP (H8-(hA1a-N1Q7)3-hA1a) (human) (UniProt P78348); assay: cross-linking; BMOE (0.5 or 2 mM) at the cell surface of Xenopus oocytes and CHO cells before lysis, cell-surface biotinylated fractions, SDS-PAGE under reducing conditions, anti-ASIC1a western blot; band intensities pooled over oocytes and CHO cells

- binding [1]: no binding
- binding [2]: no binding
Substance: tetrameric ASIC1a concatemeric fusion protein 4_(ASIC)FP (H8-(hA1a-N1Q7)3-hA1a) (from UniProt P78348-2 1-528; P78348-2 1-528; P78348-2 1-528; P78348-2 1-528)
